The target of test [1] is T1, GFP-tagged Vam7 (S. cerevisiae) (UniProt P32912).
T1 sequence: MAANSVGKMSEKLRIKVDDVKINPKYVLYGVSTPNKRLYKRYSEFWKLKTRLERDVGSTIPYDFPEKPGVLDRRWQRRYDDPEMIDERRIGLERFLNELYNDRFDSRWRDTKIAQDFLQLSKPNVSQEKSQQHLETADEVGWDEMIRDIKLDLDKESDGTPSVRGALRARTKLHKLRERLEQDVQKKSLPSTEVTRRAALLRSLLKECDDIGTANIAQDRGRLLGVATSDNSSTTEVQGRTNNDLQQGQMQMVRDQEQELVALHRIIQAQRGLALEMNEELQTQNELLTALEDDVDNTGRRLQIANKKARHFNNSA
The test is described as follows: co-IP; 3FLAG-tagged R-SNARE from a centromeric (low-copy) plasmid in WT yeast expressing the GFP-tagged Vam7 form; spheroplasts cross-linked with dithiobis(succinimidyl propionate), lysed in 20 mM Pipes-NaOH pH 6.8, 200 mM sorbitol, 150 mM NaCl, 5 mM MgCl2, 1% Triton X-100; GFP-Trap magnetic agarose beads, 2 h at 4 °C; blot with anti-FLAG.

Test [2] has as its target T2, GFP−Vam7-Q284R (S. cerevisiae) (UniProt P32912).
T2 sequence: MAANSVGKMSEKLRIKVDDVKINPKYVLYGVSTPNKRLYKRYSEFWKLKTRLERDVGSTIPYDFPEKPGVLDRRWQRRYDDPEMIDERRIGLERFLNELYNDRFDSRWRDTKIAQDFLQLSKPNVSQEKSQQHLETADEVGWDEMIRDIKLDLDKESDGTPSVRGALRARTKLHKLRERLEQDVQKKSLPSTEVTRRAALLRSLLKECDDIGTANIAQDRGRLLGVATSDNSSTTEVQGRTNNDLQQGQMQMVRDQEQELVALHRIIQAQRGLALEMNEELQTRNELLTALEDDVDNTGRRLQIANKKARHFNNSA
The test is described as above.

The target of test [3] is T2, GFP−Vam7-Q284R (S. cerevisiae). Put plainly: co-IP; as a1, but WT cells overexpressing VAM3, VTI1 and 3FLAG−YKT6 or 3FLAG−ykt6-R165Q from a single multicopy (2 μm) plasmid; GFP-tagged Vam7 form immunoprecipitated.

These are yes or no findings as the source states them, for the method shown. In cells and extracts the contact can be indirect. Some results given as binding are weak or reduced against the parent protein; the word gives no strength. Sequences can lack the tags named with a protein.

B1: 3FLAG−Nyv1 (protein, UniProt Q12255 1-253)
chain: MKRFNVSYVEVIKNGETISSCFQPFQKNENYGTITSANEQITPVIFHNLIMDMVLPKVVPIKGNKVTKMSMNLIDGFDCFYSTDDHDPKTVYVCFTLVDMPKILPIRILSGLQEYESNATNELLSSHVGQILDSFHEELVEYRNQTLNSSGNGQSSNGNGQNTISDIGDATEDQIKDVIQIMNDNIDKFLERQERVSLLVDKTSQLNSSSNKFRRKAVNIKEIMWWQKVKNITLLTFTIILFVSAAFMFFYLW
As to B1, in test [1], the binding result is “binds”.

B2: 3FLAG−Nyv1-R192Q (protein, UniProt Q12255 1-253)
chain: MKRFNVSYVEVIKNGETISSCFQPFQKNENYGTITSANEQITPVIFHNLIMDMVLPKVVPIKGNKVTKMSMNLIDGFDCFYSTDDHDPKTVYVCFTLVDMPKILPIRILSGLQEYESNATNELLSSHVGQILDSFHEELVEYRNQTLNSSGNGQSSNGNGQNTISDIGDATEDQIKDVIQIMNDNIDKFLEQQERVSLLVDKTSQLNSSSNKFRRKAVNIKEIMWWQKVKNITLLTFTIILFVSAAFMFFYLW
In the case of B2, in test [2], the binding result was “binds”.

B3: 3FLAG−Ykt6-R165Q (protein, UniProt P36015 1-200)
chain: MRIYYIGVFRSGGEKALELSEVKDLSQFGFFERSSVGQFMTFFAETVASRTGAGQRQSIEEGNYIGHVYARSEGICGVLITDKEYPVRPAYTLLNKILDEYLVAHPKEEWADVTETNDALKMKQLDTYISKYQDPSQADAIMKVQQELDETKIVLHKTIENVLQQGEKLDNLVDKSESLTASSKMFYKQAKKSNSCCIIM
B3: the binding entry in test [3] is “binds”.

The values above are taken from paper PMC11091695.
